Assay results: patent publication US20070197774A1
These are yes or no findings as the source states them, for the method shown. Some binding calls cover weakened binding; strength is not graded here.

The chains behind the UniProt entries cited, without tags or fusion partners.
UniProt Q64326: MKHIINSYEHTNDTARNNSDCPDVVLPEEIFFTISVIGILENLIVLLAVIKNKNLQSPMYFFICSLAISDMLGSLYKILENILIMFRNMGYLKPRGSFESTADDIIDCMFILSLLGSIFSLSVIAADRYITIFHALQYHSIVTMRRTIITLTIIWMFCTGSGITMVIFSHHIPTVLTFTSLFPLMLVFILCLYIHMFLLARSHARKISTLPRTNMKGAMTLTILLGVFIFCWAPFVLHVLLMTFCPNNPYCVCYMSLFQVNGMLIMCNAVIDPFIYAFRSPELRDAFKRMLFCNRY

Target: MC-2R adrenocorticotropic hormone receptor (melanocortin 2 receptor) on explanted mouse adrenal membrane (mouse) (UniProt Q64326)
Assay: competitive displacement of 125I-mACTH(1-24) from mouse adrenal membrane fraction at 10, 100 and 1000 nM

binding | Binder
binds | SYSMEHFRWGKPVGKKRRPVKVYP [unmodified mACTH(1-24)]
binds | SYSMEHFRWGKPVGKRAAWVKVYP [(KKRRP15-19KRAAW) mACTH(1-24)]
